Drawing on article PMC3092770, this text covers binding for two molecules.

These are yes or no findings as the source states them, for the method shown. For part of these data: A result given as binding can be weak or reduced; the word gives no strength. Where a sequence is shown, tags or fusion partners need not be part of it. For part of these data: In cells and extracts the contact can be indirect.

Test [1] concerns the target T1, HA-tagged Aurora-A(1–131) (human) (UniProt O14965).
T1 sequence: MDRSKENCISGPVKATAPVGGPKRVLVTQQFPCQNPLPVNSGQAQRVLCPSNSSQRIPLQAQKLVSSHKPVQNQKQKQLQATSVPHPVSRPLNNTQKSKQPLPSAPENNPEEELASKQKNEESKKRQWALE
The test is described as follows: co-IP; HEK293T cells co-transfected with FLAG-tagged PUM2 (wild type or Δ434–740) and HA-tagged Aurora-A (whole or fragments); immunoprecipitation with anti-HA antibody, immunoblot with anti-FLAG. (In general: In western blotting, separated proteins are transferred to a membrane and probed.)

Test [2] deals with T2, HA-tagged Aurora-A(1–362) (human) (UniProt O14965).
T2 sequence: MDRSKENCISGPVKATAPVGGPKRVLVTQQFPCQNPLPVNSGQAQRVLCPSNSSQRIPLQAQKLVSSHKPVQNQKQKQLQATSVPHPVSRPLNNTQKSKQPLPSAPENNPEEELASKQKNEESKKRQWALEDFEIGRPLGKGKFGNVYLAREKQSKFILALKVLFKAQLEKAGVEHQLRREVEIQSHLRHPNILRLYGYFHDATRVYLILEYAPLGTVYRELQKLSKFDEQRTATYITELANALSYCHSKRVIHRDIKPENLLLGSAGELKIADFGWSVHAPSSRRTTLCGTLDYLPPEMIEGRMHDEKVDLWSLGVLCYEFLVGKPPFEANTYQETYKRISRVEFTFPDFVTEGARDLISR
The description is as above.

Test [3] concerns the target GST-PUM2 fusion protein (human). The test is described as follows: pull-down; GST-PUM2 (40 µg) or GST on glutathione-Sepharose beads incubated with 100 µg purified His-tagged Aurora-A (wild type or K162I) in binding buffer at 4°C overnight; immunoblot with anti-His; both purified.

On to “FLAG-tagged PUM2 (Human Pumilio homology protein 2), wild type”, for which the binding entry in test [1] and in test [2] was “no binding” in each case.

B1: His-tagged kinase-inactive Aurora-A mutant protein (Aurora-A-K162I) (enzyme, UniProt O14965 1-403)
chain: MDRSKENCISGPVKATAPVGGPKRVLVTQQFPCQNPLPVNSGQAQRVLCPSNSSQRIPLQAQKLVSSHKPVQNQKQKQLQATSVPHPVSRPLNNTQKSKQPLPSAPENNPEEELASKQKNEESKKRQWALEDFEIGRPLGKGKFGNVYLAREKQSKFILALIVLFKAQLEKAGVEHQLRREVEIQSHLRHPNILRLYGYFHDATRVYLILEYAPLGTVYRELQKLSKFDEQRTATYITELANALSYCHSKRVIHRDIKPENLLLGSAGELKIADFGWSVHAPSSRRTTLCGTLDYLPPEMIEGRMHDEKVDLWSLGVLCYEFLVGKPPFEANTYQETYKRISRVEFTFPDFVTEGARDLISRLLKHNPSQRPMLREVLEHPWITANSSKPSNCQNKESASKQS
For the molecule B1, in test [3], the binding entry is reported as “binds weakly”.
